Results are given in words; binding and its absence hold for the method and conditions named. Some results given as binding are weak or reduced against the parent protein; the word gives no strength.
Target: wild-type (WT) GSK-3β (human) (UniProt P49841)
Assay: in vitro kinase assay with purified GSK-3β, with and without 100 µM L803-mts; competition with substrates

Amino acid sequences for entries named in this document (tags omitted). A change or cut given only in a name is not applied to a line headed by its entry.
UniProt P49841: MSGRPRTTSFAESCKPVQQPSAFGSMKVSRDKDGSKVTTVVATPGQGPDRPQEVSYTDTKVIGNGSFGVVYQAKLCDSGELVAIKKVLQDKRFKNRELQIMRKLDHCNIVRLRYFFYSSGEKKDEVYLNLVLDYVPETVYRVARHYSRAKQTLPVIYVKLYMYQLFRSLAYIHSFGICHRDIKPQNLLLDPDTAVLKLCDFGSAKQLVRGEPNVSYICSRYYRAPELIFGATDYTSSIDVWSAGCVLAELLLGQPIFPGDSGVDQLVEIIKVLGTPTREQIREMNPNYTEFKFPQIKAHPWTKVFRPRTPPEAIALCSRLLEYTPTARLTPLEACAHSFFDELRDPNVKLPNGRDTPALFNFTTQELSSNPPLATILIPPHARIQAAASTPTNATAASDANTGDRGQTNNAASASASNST

binding: binds
B1: L803-mts (peptide)
peptide: GKEAPPAPPQSP
modifications: not spelled out in the text for L803-mts; the parent L803 carries S(p)

— patent US20160130303A1
